Source: PubChem BioAssay AID540275 (National Center for Advancing Translational Sciences (NCATS), 2011)
The whole screen tested about 320,000 compounds, of which about 620 (0.19%) were called active. The inconclusive results got no clear call from the source; some entries with a clear call stand among them for comparison. No stated cut-off is given here; in the data, active means activation above about 80%; inconclusive means between about 30% and that limit; inactive means weaker than that.

By UniProt entry, the sequences of proteins in these tests, tags left out.
UniProt Q8NER1, whole entry, looked up: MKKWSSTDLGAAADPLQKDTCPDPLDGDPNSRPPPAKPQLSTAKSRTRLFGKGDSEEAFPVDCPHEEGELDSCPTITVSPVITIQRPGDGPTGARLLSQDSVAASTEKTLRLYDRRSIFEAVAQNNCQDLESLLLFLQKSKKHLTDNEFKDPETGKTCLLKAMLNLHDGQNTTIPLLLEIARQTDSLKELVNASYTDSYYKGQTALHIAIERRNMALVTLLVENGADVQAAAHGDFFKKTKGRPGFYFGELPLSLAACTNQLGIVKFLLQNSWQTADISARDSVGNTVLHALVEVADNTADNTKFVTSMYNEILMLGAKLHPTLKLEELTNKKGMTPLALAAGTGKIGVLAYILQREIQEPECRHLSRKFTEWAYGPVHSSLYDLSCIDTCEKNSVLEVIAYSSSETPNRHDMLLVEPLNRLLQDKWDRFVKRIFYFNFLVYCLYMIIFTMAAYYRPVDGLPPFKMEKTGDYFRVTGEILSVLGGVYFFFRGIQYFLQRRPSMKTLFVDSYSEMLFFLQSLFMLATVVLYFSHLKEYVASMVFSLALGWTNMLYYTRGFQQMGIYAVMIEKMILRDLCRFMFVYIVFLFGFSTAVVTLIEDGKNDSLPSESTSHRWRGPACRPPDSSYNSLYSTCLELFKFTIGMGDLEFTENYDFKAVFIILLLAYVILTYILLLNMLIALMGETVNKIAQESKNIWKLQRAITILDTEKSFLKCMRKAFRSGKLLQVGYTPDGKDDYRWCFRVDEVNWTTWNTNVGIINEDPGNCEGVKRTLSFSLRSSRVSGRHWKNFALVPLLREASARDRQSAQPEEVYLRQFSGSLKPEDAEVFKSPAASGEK

Target: Transient receptor potential cation channel subfamily V member 1 (Homo sapiens) (UniProt Q8NER1)
Assay: HTS Assay for Compounds that Act as Agonists of the Vanilloid Receptor 1; further: 0% is about no effect
Settings: TRPV1-expressing cells, Fluo-8 calcium influx, agonist mode; at 8.33 µM, active compounds read high
Outline: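 TRPV1-expressing cells were cultured overnight at 35.5C and loaded with Fluo-8 calcium dye for 40 to 90 min at room temperature. After a 10 s baseline, compound was added and calcium influx was read kinetically for 3 min (ex 480/em 520 nm).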

Q: Which activation does the source give for Cc1nc2cc3c(cc2c(C)c1C(=O)OC(C)C)OCO3 here?
A: Its activation is inconclusive: 39.3%.

Q: With COC(=O)c1[nH]c2ccc(C)cc2c1NC(=O)Oc1ccccc1 as the compound, how does the activation read?
A: Its activation is inactive: -2.75%.

Q: CC(C)(C)c1ccc(OCCCC(=O)N2CCOCC2)cc1 was tested. Which activation did it give?
A: The activation was active: 84.8%.

Q: How did the activation turn out when O=C(NCCc1ccccc1)c1ccnc(/C=N/O)c1 was run?
A: The activation was inactive: 3.97%.

Q: How did the activation turn out when Cc1cc(OC(C)C(=O)Nc2ccncc2)ccc1Cl (stereo not given) was run?
A: The activation was inconclusive: 61.1%.

Q: How did the activation turn out when COc1ccc(-c2nc(N3CCCCCC3)sc2C(=O)c2ccccc2)cc1 was run?
A: Its activation is inconclusive: 34%.

Q: With CCCCOc1ccc(C(=O)Nc2ccncc2)cc1 as the compound, how does the activation read?
A: Its activation is active: 93.1%.

Q: For COC(=O)/C(=C\Nc1ccccc1N)c1ncc(C(F)(F)F)cc1Cl, which activation is on record?
A: The activation was inconclusive: 35.8%.

Q: CCCc1c(C)[nH]c2ccc(C(=O)O)cc2c1=S was tested. Which activation did it give?
A: Its activation is inactive: -6.82%.

Q: With COc1cccc(NC(=O)COC(=O)c2ccccc2C(=O)N2CCN(c3ccccc3)CC2)c1 as the compound, how does the activation read?
A: The activation was inactive: -1.24%.

Q: With Cc1ccc(-c2csc(-c3cc(C)on3)n2)cc1 as the compound, how does the activation read?
A: Its activation is inconclusive: 31.1%.

Q: For CC(=O)c1cccc(NC(=O)Nc2cnn(Cc3ccc(Cl)cc3Cl)c2)c1, which activation is on record?
A: Its activation is inconclusive: 43.2%.

Q: How did the activation turn out when CCCC(C)C(=O)Nc1ccc2c(c1)OCCO2 (stereo not given) was run?
A: The activation was inactive: -0.862%.

Q: Which activation does the source give for NNC(=O)c1ccc(COc2ccc(Br)cc2)o1 here?
A: Its activation is inconclusive: 43.7%.

Q: Which activation does the source give for CN1CCN(CCCNC(=O)c2ccc(CSCc3cccc(Cl)c3)o2)CC1 here?
A: Its activation is inactive: 0.828%.

Q: With CCOC(=O)CC(=O)CSc1ncnc2c1oc1ccccc12 as the compound, how does the activation read?
A: The activation was inactive: -0.927%.

Q: Which activation does the source give for CC(C)N(C)Cc1cn(C)nc1-c1ccc(Oc2ccccc2)cc1 here?
A: Its activation is inactive: 2.82%.

Q: With CCCCc1nc(NCCNC(=O)c2ccco2)c(C#N)c2c1CSC(C)(C)C2 as the compound, how does the activation read?
A: Its activation is inconclusive: 61.3%.

Q: For CCOc1ccc(NC(=O)C2CCCN(c3nc(C)cc(C)n3)C2)cc1 (stereo not given), which activation is on record?
A: The activation was inconclusive: 36.7%.

Q: Which activation does the source give for COc1ccc2c(CC(=O)Nc3cccc(S(=O)(=O)N4CCOCC4)c3)coc2c1 here?
A: Its activation is inactive: 0.0012%.

Q: For CCCN1CCC(=O)N([C@H](CSc2ccc(C)cc2)Cc2ccccc2)CC1, which activation is on record?
A: Its activation is inconclusive: 43.1%.

Q: O=C(N/N=C/C=C/c1ccccc1)c1ccncc1 was tested. Which activation did it give?
A: The activation was inconclusive: 50.6%.

Q: With CCCN1C=CC(=CC=C(C#N)C#N)C=C1 as the compound, how does the activation read?
A: The activation was inconclusive: 50.9%.

Q: Which activation does the source give for COc1cc(OC)cc(C(=O)N[C@H](C(=O)Nc2nc(-c3cc(OC)ccc3OC)cs2)C(C)C)c1 here?
A: The activation was inactive: 1.12%.

Q: O=C(NN=C(Cc1ccccc1)Cc1ccccc1)c1ccncc1 was tested. Which activation did it give?
A: The activation was inconclusive: 31.7%.

Q: CCOc1ccc(-c2cc(C(=O)OC)nc3c2c(=O)n(C)c(=O)n3C)cc1 was tested. Which activation did it give?
A: The activation was inactive: -0.204%.

Q: For CCCCNc1ccc2c3c(cccc13)C(=O)N(CCCC)C2=O, which activation is on record?
A: The activation was active: 92.2%.

Q: COc1ccc(CN2CCN(S(=O)(=O)c3ccc(NC(C)=O)cc3)CC2)cc1OC was tested. Which activation did it give?
A: Its activation is inactive: -2.61%.

Q: COc1cccc(N2CCN(c3c(C#N)c(C(F)(F)F)nn3C)CC2)c1 was tested. Which activation did it give?
A: The activation was inactive: 2.68%.

Q: COc1cc2ccccc2cc1C(=O)N1CCOCC1 was tested. Which activation did it give?
A: The activation was inactive: -0.849%.

Q: Which activation does the source give for COc1ccc(C(=O)C2CCN(C(=O)Nc3ccc(C)cc3)CC2)cc1 here?
A: Its activation is inconclusive: 63.6%.

Q: How did the activation turn out when Cc1nc(N2CCC(C)CC2)c2c(C)c(C(=O)Nc3ccc(C)c(F)c3)sc2n1 was run?
A: Its activation is inconclusive: 43.1%.

Q: Which activation does the source give for CCOC(=O)c1ccccc1Nc1cc(C)nc2nc(-c3ccco3)nn12 here?
A: The activation was inconclusive: 66.8%.

Q: Which activation does the source give for Cc1ccc(OCCSc2ncnc3sc(C)c(C)c23)cc1C here?
A: The activation was inactive: -0.408%.

Q: With Cc1csc(NC(=O)c2ccc(-c3ccc(Cl)cc3Cl)o2)n1 as the compound, how does the activation read?
A: Its activation is inconclusive: 43.9%.

Q: How did the activation turn out when COc1ccc(CN(C(=O)CSc2nnc(-c3ccccc3C)o2)c2ccc(F)cc2)cc1 was run?
A: Its activation is inconclusive: 34.7%.

Q: With CC(C)(C)c1csc(NC(=O)c2ccc(Br)o2)n1 as the compound, how does the activation read?
A: Its activation is inconclusive: 60.2%.

Q: Which activation does the source give for Cc1nn(C)c(=O)n1-c1ccc(OCc2ccccc2)cc1 here?
A: The activation was inconclusive: 37.6%.

Q: How did the activation turn out when Cc1ccc(Sc2ccc(NC(=O)CCN3C(=O)NC4(CCCC4)C3=O)cc2)c(C)c1 was run?
A: The activation was inconclusive: 63.3%.

Q: CCCCCCNC(=O)CNC(=S)N(Cc1cccs1)C1CCCCC1 was tested. Which activation did it give?
A: Its activation is inconclusive: 31.1%.

Q: Which activation does the source give for c1ccc(CCc2nc(-c3ccccc3)no2)cc1 here?
A: Its activation is inconclusive: 36.7%.

Q: For CCc1ccccc1N(CC(=O)Nc1cccnc1)S(=O)(=O)c1ccccc1, which activation is on record?
A: The activation was inconclusive: 50%.

Q: O=C(NCCc1ccccc1)c1cccc([N+](=O)[O-])c1 was tested. Which activation did it give?
A: The activation was inconclusive: 72.5%.

Q: For c1ccc2sc(N3CN(CCN4CCOCC4)CN(c4nc5ccccc5s4)C3)nc2c1, which activation is on record?
A: Its activation is inconclusive: 31.3%.

Q: How did the activation turn out when CCN1/C(=C2\C(=O)N(c3ccccc3)N=C2C)C=Cc2cc(C)ccc21 was run?
A: Its activation is inactive: 2.1%.

Q: CC1CCC(NC(=O)CN2CCN(S(=O)(=O)c3cccs3)CC2)CC1 (stereo not given) was tested. Which activation did it give?
A: The activation was inactive: 2.31%.

Q: CCOc1ccc(-c2nnc3sc(COc4ccccc4)nn23)cc1 was tested. Which activation did it give?
A: Its activation is inconclusive: 38.9%.

Q: Which activation does the source give for CC(C)c1ccc2nc(NC(=O)C3CC3)sc2c1 here?
A: Its activation is inconclusive: 37.6%.

Q: How did the activation turn out when COc1ccc(OC)c(NC(=O)CCN2CCN(c3ccccc3F)CC2)c1 was run?
A: Its activation is inactive: 1.14%.

Q: With Cc1cccc(C(=O)Nc2cccc(C(=O)N/N=C/c3cccc(C)n3)c2)c1 as the compound, how does the activation read?
A: The activation was inactive: -1.51%.

Q: O=C(O/N=C(/c1ccccc1)c1ccncc1)c1cccc(F)c1 was tested. Which activation did it give?
A: The activation was inconclusive: 30.6%.

Q: How did the activation turn out when Cc1nn(Cc2ccccc2Cl)c2sc(C(=O)OC3CCCC3=O)cc12 (stereo not given) was run?
A: Its activation is inconclusive: 30.3%.

Q: With O=C(Nc1ccnn1C1CCN(C/C=C/c2ccccc2)CC1)C1CCCC1 as the compound, how does the activation read?
A: Its activation is inactive: -0.806%.

Q: How did the activation turn out when O=C1C2C3C=CC(C3=C3CCCCC3)C2C(=O)N1Cc1ccccc1 (stereo not given) was run?
A: Its activation is inconclusive: 36.3%.

Q: For O=C1CCCC/C1=C/Nc1cccc(C(F)(F)F)c1, which activation is on record?
A: Its activation is inconclusive: 60.5%.

Q: With Cc1nc(-c2cccs2)sc1C(=O)O as the compound, how does the activation read?
A: Its activation is inactive: 0.627%.

Q: For Cc1cc(C)c(-c2csc(NC(=O)C3=COCCO3)n2)c(C)c1, which activation is on record?
A: Its activation is inactive: -4.41%.

Q: Which activation does the source give for Cc1ccccc1OCc1nc2ccccc2c(=O)n1/N=C/c1c[nH]c2ccccc12 here?
A: The activation was inactive: -0.0253%.

Q: Which activation does the source give for CCOC(=O)C1=C(N)Oc2ccc3ccccc3c2C1c1cccc(O)c1 (stereo not given) here?
A: The activation was inconclusive: 32.4%.

Q: With Cn1c(N)c(C(=O)COC(=O)C2CCCCC2)c(=O)n(C)c1=O as the compound, how does the activation read?
A: Its activation is inconclusive: 39.4%.
